Reference: PMC8962522, “Direct interaction of TrkA/CD44v3 is essential for NGF-promoted aggressiveness of breast cancer cells” (Journal of Experimental & Clinical Cancer Research : CR, 2022)
These are yes or no findings as the source states them, for the method shown. In cells and extracts the contact can be indirect.

The chains behind the UniProt entries cited, without tags or fusion partners. Where a name states a change or a piece, a line headed by the entry shows the natural chain unless it says otherwise. A line that says so, or that is headed by a name, gives the form on record, which may keep a tag or linker. Residues count along the entry.
CD44s (P16070, form named): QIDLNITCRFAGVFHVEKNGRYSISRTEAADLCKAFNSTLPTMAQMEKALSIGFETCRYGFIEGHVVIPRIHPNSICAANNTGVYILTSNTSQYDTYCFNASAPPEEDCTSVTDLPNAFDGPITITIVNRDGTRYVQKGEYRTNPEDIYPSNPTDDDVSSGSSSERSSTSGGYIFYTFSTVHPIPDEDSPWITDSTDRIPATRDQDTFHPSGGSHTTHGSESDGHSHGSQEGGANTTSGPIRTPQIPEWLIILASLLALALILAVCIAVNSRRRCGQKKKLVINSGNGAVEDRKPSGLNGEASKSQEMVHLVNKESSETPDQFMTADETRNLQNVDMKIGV
UniProt P04629, residues 33-796: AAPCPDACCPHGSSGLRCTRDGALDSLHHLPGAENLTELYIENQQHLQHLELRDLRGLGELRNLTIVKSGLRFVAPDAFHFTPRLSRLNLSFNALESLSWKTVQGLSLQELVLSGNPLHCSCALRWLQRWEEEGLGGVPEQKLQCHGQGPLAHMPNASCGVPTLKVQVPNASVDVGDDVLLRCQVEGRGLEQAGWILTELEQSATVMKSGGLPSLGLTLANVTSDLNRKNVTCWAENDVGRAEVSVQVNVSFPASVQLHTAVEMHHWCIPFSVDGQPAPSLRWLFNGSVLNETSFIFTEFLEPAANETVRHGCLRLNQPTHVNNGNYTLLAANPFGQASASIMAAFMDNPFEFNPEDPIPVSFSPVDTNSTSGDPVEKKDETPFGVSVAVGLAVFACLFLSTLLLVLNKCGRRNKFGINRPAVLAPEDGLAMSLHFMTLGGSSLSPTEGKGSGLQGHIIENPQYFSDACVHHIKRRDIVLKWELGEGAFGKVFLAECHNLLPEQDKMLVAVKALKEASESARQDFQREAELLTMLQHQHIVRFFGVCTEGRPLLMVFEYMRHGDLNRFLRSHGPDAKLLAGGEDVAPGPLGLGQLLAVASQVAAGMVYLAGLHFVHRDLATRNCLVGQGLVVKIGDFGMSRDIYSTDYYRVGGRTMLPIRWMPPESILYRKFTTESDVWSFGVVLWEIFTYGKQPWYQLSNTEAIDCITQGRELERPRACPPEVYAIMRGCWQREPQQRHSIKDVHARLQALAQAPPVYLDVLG

Target: CD44s (UniProt P16070)
Test: proximity ligation; COS-7 cells transfected with TrkA (wild type or H112A) and a CD44 isoform or deletion mutant; NGF 100 ng/ml for 0, 5 and 30 min; fixed cells; rabbit anti-TrkA and mouse anti-CD44 antibodies

binding: no binding
Substance: TrkA wild type (from UniProt P04629 33-796) (receptor)
